From paper PMC7181697
No constants are given. Whether binding was seen depends on the method and setting. Binding can be weak; no strength is given. Sequences can lack the tags named with a protein.

Experiments:
MBP-SHLD2(1–60) (human) [1] = target: T1, MBP-SHLD2(1–60) (human) (UniProt Q86V20); experiment: SEC; Superdex 200 Increase 10/300 GL, 20 mM Tris/HCl pH 8.0, 150 mM NaCl, 1% glycerol, 1 mM TCEP; proteins mixed and incubated 10 min on ice; 0.5 ml fractions on SDS-PAGE, Coomassie; both purified
T1 sequence: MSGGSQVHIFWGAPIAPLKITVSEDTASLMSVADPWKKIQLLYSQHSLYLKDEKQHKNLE

MBP-SHLD2(1–60) (human) [2] = target: T1, MBP-SHLD2(1–60) (human); experiment: pull-down; 30 μg MBP-SHLD2(1-60) on dextrin beads, 20 μg REV7-SHLD3(1-82) with or without 20 μg REV7 added for 30 min; washed with 20 mM Tris pH 8.0, 500 mM NaCl, 1% glycerol, 0.5 mM TCEP, 0.5% NP-40; SDS-PAGE, Coomassie; both purified

| binding (MBP-SHLD2(1–60) (human) [1]) | binding (MBP-SHLD2(1–60) (human) [2]) | Substance |
| --- | --- | --- |
| binds |  | REV7^K129A-SHLD3(1–82)-REV7^K129A (human) (complex) |
| binds |  | REV7^W171A-SHLD3(1–82) (human) (complex) |
| binds | binds | REV7^WT-SHLD3(1–82) (human) (complex) |
| binds |  | REV7^Y63A-SHLD3(1–82) (human) (complex) |
